The whole screen tested about 340,000 compounds, of which about 6,200 (1.8%) were called active. The shares of active, inactive and inconclusive entries below differ from those in the screen. The call rests on the fitted dose curve; in most records, active means well fitted activation curve with a large enough effect; inconclusive means small, poorly fitted or top-dose-only effect; inactive means no such curve, though single readings can be large or run the other way. Potencies beside an inconclusive call are fits to weak or partial responses and may not hold up.
assay: A quantitative high throughput screen for small molecules that induce DNA re-replication in SW480 colon adenocarcinoma cells.; further: nearly all actives have a fitted effect of over 55% in size; on re-replication activation: % of control where 0% means no effect; details: Hoechst DNA content imaging, 48 h; re-replication activation: at 46.1 µM (top of the series) unless noted
In short: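 Cells (250 per well) received 23 nL compound or DMSO by pin tool and were kept 48 hr at 37 C, 5% CO2. Nuclei were then stained with Hoechst for 40 min and scanned for DNA content.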
Potency means the concentration at half of the fitted maximal effect.

| Structure (SMILES) | Potency | re-replication activation |
| --- | --- | --- |
| O=C(Cc1cccc(NC(=O)C2CCCN(C(=O)CCc3ccccc3)C2)c1)Nc1cccc(C(=O)N2CCOCC2)c1 (centres undefined) | inconclusive: 1.16 µM [activator, single point] | – |
| CCn1c(C)c(C)c2cc(C(=O)NCCCN3CCCCCC3)ccc21 | inconclusive: 18.4 µM [activator, single point] | – |
| CC1CCCC(NC(=O)CNC(=S)N(Cc2ccccc2)Cc2cccs2)C1C (centres undefined) | inconclusive: 23.1 µM [activator, partial curve, poor fit] | – |
| COc1ccc(CC(=O)Nc2sc3c(c2C#N)CC(C)(C)NC3(C)C)cc1OC | inconclusive: 2.91 µM [activator, single point] | – |
| COc1cccc(N/C(SCc2ccccc2F)=C(/C#N)C(=O)NCc2cccs2)c1 | inconclusive: 2.31 µM [activator, single point] | – |
| CCCC(=O)NNc1c2ccccc2nc2ccccc12 | inactive | – |
| Cc1cc(Cl)ccc1C(=O)C1CCCN(C(=O)c2cc(C(C)C)no2)C1 (centres undefined) | inactive | – |
| C=CC[N@@+]12CC[C@]34c5ccccc5N5/C=C6\C7N(/C=C(\C53)[C@@H](C[C@@H]41)/C(=C/CO)C2)c1ccccc1[C@@]71CC[N@@+]2(CC=C)C/C(=C\CO)[C@@H]6C[C@@H]12 (some centres undefined) | inconclusive: 0.231 µM [activator, single point] | – |
| COc1ccc(OC)c(CCNC(=O)CN2C(=O)CCSc3ccccc32)c1 | inactive | – |
| Cc1ccc(Cn2cccc(-c3nc4ccccc4s3)c2=O)cc1 | inconclusive: 1.64 µM [activator, full curve, poor fit] | – |
| O=C(CCCCl)NC(=S)Nc1cc(C(F)(F)F)ccc1N1CCOCC1 | inconclusive: 18.4 µM [activator, partial curve, poor fit] | – |
| CSc1nc2nccc(/C=C\c3ccccc3)n2n1 | inconclusive: 20.6 µM [activator, single point] | – |
| S=C(NC12CC3CC(CC(C3)C1)C2)N1CCCC1 | inconclusive: 0.651 µM [activator, full curve, poor fit] | – |
| Clc1ccccc1-c1nnc2sc(-c3ccc4c(c3)OCO4)nn12 | active: 6.51 µM | – |
| C/C(=C\c1cccs1)C(=O)c1c(C)cc(C)[nH]c1=O | inconclusive: 29.1 µM [activator, single point] | – |
| Cc1ccc(S(=O)(=O)Nc2ccc3c(c2)nc(CCN2CCN(c4ccccn4)CC2)n3C)cc1 | active: 1.03 µM | – |
| COc1ccccc1OCCNC(=O)Cc1ccc(S(=O)(=O)N2CCOCC2)s1 | inconclusive: 1.84 µM [activator, partial curve, poor fit] | – |
| COc1cc(OC)cc(C(=O)Nc2nc(-c3ccccc3)c(-c3ccccc3)o2)c1 | inconclusive: 0.0052 µM [activator, full curve, poor fit] | – |
| O=C(NC1CCCCC1)C(c1ccccn1)N(C(=O)c1csnn1)c1ccccc1F (centres undefined) | inconclusive: 29.1 µM [activator, single point] | – |
| O=C(Nn1cnnc1)c1ccc(Cl)cc1 | inactive | – |

| Structure (SMILES) | Potency | re-replication activation |
| --- | --- | --- |
| N#Cc1ccccc1NC(=O)CSc1n[nH]c(-c2ccco2)n1 | inconclusive: 29.1 µM [activator, single point] | – |
| Cc1ccc(S(=O)(=O)n2cc(C=O)c3ccccc32)cc1 | inconclusive: 16.4 µM [activator, single point] | – |
| Cc1cc(C)c2nc(N(CCCN(C)C)C(=O)c3ccc(S(=O)(=O)N4CCCCCC4)cc3)sc2c1 | inconclusive: 20.6 µM [activator, single point] | – |
| CC(C)c1cccc(O)c(=O)c1 | inactive | – |
| CC(=O)c1cccc(N(CC(=O)Nc2ccc(S(=O)(=O)N3CCCC3)cc2)S(C)(=O)=O)c1 | inactive | – |
| COc1ccc(NC(C)=O)c([N+](=O)[O-])c1[N+](=O)[O-] | inconclusive: 29.1 µM [activator, single point] | – |
| Cc1ccc(C(C)C)c(OCc2ccc(C(=O)N/N=C/c3ccc(O)cc3O)cc2)c1 | inconclusive: 2.91 µM [activator, full curve] | – |
| Nc1nc2c(ncn2COC(CO)CO)c(=O)[nH]1 | inconclusive: 3.26 µM [activator, single point] | – |
| C#CCOCCOCCOCCNc1nc(N2CCN(C(=O)CCCCCCCCCCNC(=O)[C@@H](CCSC)n3cc(CCO)nn3)CC2)nc(N2CCN(C(=O)CCCCCCCCCCNC(=O)[C@H](CCCN=C(N)N)n3cc(C[C@@H](C)CC)nn3)CC2)n1 | – | inactive: -106% [at 9.22 µM] |
| O=C(OCc1ccccc1)N(CCCCN(CCCNCc1ccccc1)C(=O)OCc1ccccc1)CCCNCc1ccccc1 | inconclusive: 2.59 µM [activator, partial curve, poor fit] | – |
| C=C1C(=O)O[C@@H]2[C@H]1[C@@H](OC(=O)/C(C)=C/C)C/C(C)=C\C(=O)/C=C(\C)[C@@H]2O | inconclusive: 0.731 µM [activator, full curve, poor fit] | – |
| CCOc1ccccc1NC(=S)N1CCN(c2cccc(OC)c2)CC1 | inconclusive: 29.1 µM [activator, single point] | – |
| O=C(Cc1csc(Nc2nc(=S)[nH]c3ccccc23)n1)NCc1ccc(Cl)cc1 | inconclusive: 25.9 µM [activator, single point] | – |
| Cc1nn(C)c(C)c1C(C)NC(=O)c1ccc(OC2CCN(Cc3ccccn3)CC2)cc1 (centres undefined) | inconclusive: 29.1 µM [activator, single point] | – |
| COc1ccc2c(n1)Sc1nc3ccccc3nc1N2 | inconclusive: 29.1 µM [activator, single point] | – |
| CCOc1ccccc1CN(Cc1ccco1)S(=O)(=O)c1ccc(-n2cnnn2)c(OC)c1 | active: 8.2 µM | – |
| COc1cc(C(C)=O)ccc1OCC(=O)Nc1ccc(Cl)c(S(=O)(=O)N2CCOCC2)c1 | inconclusive: 20.6 µM [activator, single point] | – |
| C=CCC(O)(CC=C)C(C)N (centres undefined) | inactive | – |
| Cn1c(=O)c2c(nc(Br)n2C/C=N/NC(N)=S)n(C)c1=O | inconclusive: 20.6 µM [activator, partial curve, poor fit] | – |

A run of entries of the results above:

| Structure (SMILES) | Potency | re-replication activation |
| --- | --- | --- |
| C/C(=C\c1cccs1)C(=O)c1c(C)cc(C)[nH]c1=O | inconclusive: 29.1 µM [activator, single point] | – |
| Cc1ccc(S(=O)(=O)Nc2ccc3c(c2)nc(CCN2CCN(c4ccccn4)CC2)n3C)cc1 | active: 1.03 µM | – |
